Data: the supplement of paper PMC8728848
Some of the results follow.

Tests used:
Assay in all cases: glycan array binding signal (z-score within array); higher = stronger binding
Conditions in all cases: glycan notation: IUPAC condensed, linker removed
[1] = tested on: Fuc(a1-2)Gal(b1-4)GlcNAc(b1-6)GalNAc
Summary of the method: (§1)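 Arrays were curated from the Consortium for Functional Glycomics database, 3228 in total, and kept only where the protein sequence was available. Binding is expressed as a within-array Z-score. This score was averaged across arrays of the same protein sequence at different concentrations or buffers and across linkers, and negative values can be read as non-binding.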

[2] = tested on: Fuc(a1-2)Gal(b1-4)GlcNAc6S
Summary of the method: as §1

Fuc(a1-2)Gal(b1-4)GlcNAc = tested on: Fuc(a1-2)Gal(b1-4)GlcNAc
Summary of the method: as §1

Fuc(a1-2)Gal(b1-4)Glc = tested on: Fuc(a1-2)Gal(b1-4)Glc
Summary of the method: as §1

[3] = tested on: Fuc(a1-2)Gal(b1-4)[Fuc(a1-3)]GlcNAc(b1-2)Man(a1-3)[Fuc(a1-2)Gal(b1-4)[Fuc(a1-3)]GlcNAc(b1-2)Man(a1-6)]Man(b1-4)GlcNAc(b1-4)[Fuc(a1-6)]GlcNAc
Summary of the method: as §1

[4] = tested on: Fuc(a1-2)Gal(b1-4)[Fuc(a1-3)]GlcNAc(b1-2)[Fuc(a1-2)Gal(b1-4)[Fuc(a1-3)]GlcNAc(b1-4)]Man(a1-3)[Fuc(a1-2)Gal(b1-4)[Fuc(a1-3)]GlcNAc(b1-2)Man(a1-6)]Man(b1-4)GlcNAc(b1-4)GlcNAc
Summary of the method: as §1

[5] = tested on: Fuc(a1-2)Gal(b1-4)[Fuc(a1-3)]GlcNAc(b1-3)Gal(b1-4)[Fuc(a1-3)]GlcNAc(b1-3)Gal(b1-4)[Fuc(a1-3)]GlcNAc
Summary of the method: as §1

[6] = tested on: Fuc(a1-2)Gal(b1-4)[Fuc(a1-3)]GlcNAc(b1-3)Gal(b1-4)[Fuc(a1-3)]GlcNAc
Summary of the method: as §1

[7] = tested on: Fuc(a1-2)Gal(b1-4)[Fuc(a1-3)]GlcNAc(b1-3)GalNAc
Summary of the method: as §1

[8] = tested on: Fuc(a1-2)Gal(b1-4)[Fuc(a1-3)]GlcNAc(b1-3)[Neu5Ac(a2-6)Gal(b1-4)GlcNAc(b1-6)]Gal(b1-4)Glc
Summary of the method: as §1

[9] = tested on: Fuc(a1-2)Gal(b1-4)[Fuc(a1-3)]GlcNAc
Summary of the method: as §1

[10] = tested on: Fuc(a1-2)Gal3S(b1-4)GlcNAc
Summary of the method: as §1

[11] = tested on: Fuc(a1-2)Gal6S(b1-3)GlcNAc6S
Summary of the method: as §1

[12] = tested on: Fuc(a1-2)Gal6S(b1-3)GlcNAc
Summary of the method: as §1

[13] = tested on: Fuc(a1-2)Gal6S(b1-4)Glc6S
Summary of the method: as §1

Fuc(a1-2)Gal6S(b1-4)Glc = tested on: Fuc(a1-2)Gal6S(b1-4)Glc
Summary of the method: as §1

Fuc(a1-2)Gal = tested on: Fuc(a1-2)Gal
Summary of the method: as §1

[14] = tested on: Fuc(a1-2)[Gal(a1-3)]Gal(b1-3)GalNAc(b1-3)Gal(a1-4)Gal(b1-4)Glc
Summary of the method: as §1

[15] = tested on: Fuc(a1-2)[Gal(a1-3)]Gal(b1-3)GalNAc
Summary of the method: as §1

[16] = tested on: Fuc(a1-2)[Gal(a1-3)]Gal(b1-3)GlcNAc(b1-2)Man(a1-3)[Fuc(a1-2)[Gal(a1-3)]Gal(b1-3)GlcNAc(b1-2)Man(a1-6)]Man(b1-4)GlcNAc(b1-4)GlcNAc
Summary of the method: as §1

[17] = tested on: Fuc(a1-2)[Gal(a1-3)]Gal(b1-3)GlcNAc(b1-2)Man(a1-3)[Fuc(a1-2)[Gal(a1-3)]Gal(b1-3)GlcNAc(b1-2)Man(a1-6)]Man(b1-4)GlcNAc(b1-4)[Fuc(a1-6)]GlcNAc
Summary of the method: as §1

[18] = tested on: Fuc(a1-2)[Gal(a1-3)]Gal(b1-3)GlcNAc(b1-3)GalNAc
Summary of the method: as §1

[19] = tested on: Fuc(a1-2)[Gal(a1-3)]Gal(b1-3)GlcNAc(b1-6)GalNAc
Summary of the method: as §1

[20] = tested on: Fuc(a1-2)[Gal(a1-3)]Gal(b1-3)GlcNAc
Summary of the method: as §1

[21] = tested on: Fuc(a1-2)[Gal(a1-3)]Gal(b1-4)GlcNAc(b1-2)Man(a1-3)[Fuc(a1-2)[Gal(a1-3)]Gal(b1-4)GlcNAc(b1-2)Man(a1-6)]Man(b1-4)GlcNAc(b1-4)GlcNAc
Summary of the method: as §1

[22] = tested on: Fuc(a1-2)[Gal(a1-3)]Gal(b1-4)GlcNAc(b1-2)Man(a1-3)[Fuc(a1-2)[Gal(a1-3)]Gal(b1-4)GlcNAc(b1-2)Man(a1-6)]Man(b1-4)GlcNAc(b1-4)[Fuc(a1-6)]GlcNAc
Summary of the method: as §1

[23] = tested on: Fuc(a1-2)[Gal(a1-3)]Gal(b1-4)GlcNAc(b1-2)Man
Summary of the method: as §1

[24] = tested on: Fuc(a1-2)[Gal(a1-3)]Gal(b1-4)GlcNAc(b1-3)GalNAc
Summary of the method: as §1

[25] = tested on: Fuc(a1-2)[Gal(a1-3)]Gal(b1-4)GlcNAc(b1-3)[Fuc(a1-2)[Gal(a1-3)]Gal(b1-4)GlcNAc(b1-6)]GalNAc
Summary of the method: as §1

[26] = tested on: Fuc(a1-2)[Gal(a1-3)]Gal(b1-4)GlcNAc(b1-6)GalNAc
Summary of the method: as §1

[27] = tested on: Fuc(a1-2)[Gal(a1-3)]Gal(b1-4)GlcNAc
Summary of the method: as §1

[28] = tested on: Fuc(a1-2)[Gal(a1-3)]Gal(b1-4)Glc
Summary of the method: as §1

## MpAFP RI GFP (Marinomonas primoryensis)
[1]
  glycan array binding signal (z-score): 0.939
[2]
  glycan array binding signal (z-score): -0.006
Fuc(a1-2)Gal(b1-4)GlcNAc
  glycan array binding signal (z-score): -0.23
Fuc(a1-2)Gal(b1-4)Glc
  glycan array binding signal (z-score): -0.404
[3]
  glycan array binding signal (z-score): 1.18
[4]
  glycan array binding signal (z-score): 1.36
[5]
  glycan array binding signal (z-score): -0.005
[6]
  glycan array binding signal (z-score): -0.013
[7]
  glycan array binding signal (z-score): 0.415
[8]
  glycan array binding signal (z-score): -0.494
[9]
  glycan array binding signal (z-score): 0.405
[10]
  glycan array binding signal (z-score): -0.61
[11]
  glycan array binding signal (z-score): 1.15
[12]
  glycan array binding signal (z-score): -0.023
[13]
  glycan array binding signal (z-score): -0.375
Fuc(a1-2)Gal6S(b1-4)Glc
  glycan array binding signal (z-score): -0.628
Fuc(a1-2)Gal
  glycan array binding signal (z-score): 0.111
[14]
  glycan array binding signal (z-score): -0.086
[15]
  glycan array binding signal (z-score): -0.433
[16]
  glycan array binding signal (z-score): -0.254
[17]
  glycan array binding signal (z-score): -0.096
[18]
  glycan array binding signal (z-score): -0.43
[19]
  glycan array binding signal (z-score): -0.027
[20]
  glycan array binding signal (z-score): -0.449
[21]
  glycan array binding signal (z-score): 1.16
[22]
  glycan array binding signal (z-score): -0.246
[23]
  glycan array binding signal (z-score): -0.289
[24]
  glycan array binding signal (z-score): -0.744
[25]
  glycan array binding signal (z-score): -0.23
[26]
  glycan array binding signal (z-score): -0.127
[27]
  glycan array binding signal (z-score): -0.575
[28]
  glycan array binding signal (z-score): 0.628
